According to PubChem BioAssay AID330 (DTP/NCI, 2004):
The list is a part of this screen's results and no random one: it gathers tests that were run many times, whatever their T/C, doses with no T/C, and many T/C values between a quarter and a half above the control. Other doses and runs of a compound stand elsewhere. T/C is the treated group as % of the vehicle group. Some doses have a count of surviving animals in place of a T/C: the source holds a T/C of zero for them, seemingly a mark for toxic or unscored doses. Some doses without a T/C left all or most animals alive at the check, yet need not have been tolerated: the source hardly ever lists a survival T/C far under the control, and the zero likely stands for such cases as well. Survivors were counted at the toxicity check, usually on the fifth day, unless a day is given; later deaths do not show. Schedules are NCI's codes, read here as Q, the interval in days (D) or hours (H), X, the number of doses. Some entries hold several experiments; the values are given in rising order. Where survival is the endpoint, the PubChem record calls one and a half times the control and up active, and a quarter to a half above the control has no call in these data; cut-offs in other NCI protocols can differ. Some T/C values carry the count of animals alive at the toxicity check (mostly the fifth day); where none is given, no animal had died by that day.

System: P388 leukemia ip, CD2F1 mice, survival T/C
Test: NCI In Vivo Anticancer Drug Screen. Data for tumor model P388 Leukemia (intraperitoneal) in CD2F1 (CDF1) mice
Conditions: T/C endpoint: median survival time, higher T/C = longer survival
[1] = dose: 8.0 mg/kg/injection, schedule: Q01DX009 (ip), vehicle: Klucel (hydroxypropylcellulose) (HPC)
[2] = dose: 200.0 mg/kg/injection, schedule: Q01DX009 (ip), vehicle: saline
[3] = dose: 200.0 mg/kg/injection, schedule: Q01DX005 (ip), vehicle: Klucel (hydroxypropylcellulose) (HPC)
[4] = dose: 50.0 mg/kg/injection, schedule: Q01DX009 (ip), vehicle: saline with Tween-80
[5] = dose: 100.0 mg/kg/injection, schedule: Q01DX009 (ip), vehicle: saline with Tween-80
[6] = dose: 200.0 mg/kg/injection, schedule: Q04DX003 (ip), vehicle: saline
[7] = dose: 400.0 mg/kg/injection, schedule: Q04DX003 (ip), vehicle: saline
[8] = dose: 50.0 mg/kg/injection, schedule: Q01DX009 (ip), vehicle: Klucel (hydroxypropylcellulose) (HPC)
[9] = dose: 200.0 mg/kg/injection, schedule: Q01DX009 (ip), vehicle: Klucel (hydroxypropylcellulose) (HPC)
[10] = dose: 200.0 mg/kg/injection, schedule: Q01DX009 (ip), vehicle: saline with Tween-80
[11] = dose: 50.0 mg/kg/injection, schedule: Q01DX009 (ip), vehicle: saline

What does the source list for `CC1OC1C(=O)C1(O)C(C)C(O)C23OC2(C(O)c2c(O)cccc2C3=O)C1O` (stereo unspecified)?
T/C (dose: 2.0 mg/kg/injection, schedule: Q01DX009 (ip), vehicle: Klucel (hydroxypropylcellulose) (HPC)): 129 % of control; T/C (dose: 4.0 mg/kg/injection, schedule: Q01DX009 (ip), vehicle: Klucel (hydroxypropylcellulose) (HPC)): 146 % of control; T/C [1]: 148 % of control [5 of 6 alive]; survivor count [1]: 6 of 6; survivor count (dose: 16.0 mg/kg/injection, schedule: Q01DX009 (ip), vehicle: Klucel (hydroxypropylcellulose) (HPC)): 3 of 6

For `NCCC1C2CC3CC(C2)CC1C3` (stereo unspecified), which survivor count [2] is on record?
The survivor count was 0 of 6.

How did the survivor count (dose: 100.0 mg/kg/injection, schedule: Q01DX005 (ip), vehicle: Klucel (hydroxypropylcellulose) (HPC)) turn out when `O=S1(=O)CS(=O)(=O)OCCCCCO1` was run?
The survivor count was 0 of 6 and 2 of 6.

How did the survivor count (dose: 200.0 mg/kg/injection, schedule: Q01DX009 (ip), vehicle: suspension in saline) turn out when `Cc1c(C)c2ccc(OCCCN3CCN(Cc4ccc(Cl)cc4)CC3)cc2oc1=O` was run?
Its survivor count is 2 of 6.

Which survivor count [3] does the source give for `CC1(C)Nc2cccc3cccc(c23)N1` here?
Its survivor count is 2 of 6.

Which survivor count (dose: 120.0 mg/kg/injection, schedule: Q01DX009 (ip), vehicle: saline) does the source give for `CCN=C=NCCCN(C)C` here?
Its survivor count is 0 of 6.

With `O=[N+]([O-])c1nccn1CC(O)CO` (stereo unspecified) as the molecule, how does the T/C (dose: 400.0 mg/kg/injection, schedule: Q01DX009 (ip), vehicle: saline) read?
The T/C was 143 % of control.

How did the T/C (dose: 20.0 mg/kg/injection, schedule: Q01DX009 (ip), vehicle: Klucel (hydroxypropylcellulose) (HPC)) turn out when `c1c[n+](CC2CO2)ccc1-c1cc[n+](CC2CO2)cc1` (stereo unspecified) was run?
Its T/C is 138 % of control.

`ClC(Cl)(Cl)SSC(=Nc1ccccc1)SSC(Cl)(Cl)Cl` was tested. Which T/C [4] did it give?
The T/C was 131 % of control.

And the T/C [5]?
The T/C was 133 % of control.

How did the survivor count [4] turn out when `O=C(CCl)NC(=O)CCl` was run?
Its survivor count is 5 of 6.

What about the survivor count [5] of the same molecule?
The survivor count was 1 of 6.

Which results are given for `O=C(Nc1ccc(C2=NCCCN2)cc1)c1ccc(C(=O)Nc2ccc(C3=NCCCN3)cc2)nc1`?
T/C (dose: 5.0 mg/kg/injection, schedule: Q01DX009 (ip), vehicle: saline): 127 % of control; T/C (dose: 10.0 mg/kg/injection, schedule: Q01DX009 (ip), vehicle: saline): 145 % of control; survivor count (dose: 20.0 mg/kg/injection, schedule: Q04DX003 (ip), vehicle: saline): 3 of 6; survivor count (dose: 100.0 mg/kg/injection, schedule: Q04DX003 (ip), vehicle: saline): 0 of 6; survivor count [6]: 0 of 6; survivor count [7]: 0 of 6

What does the source list for `O=C(OCCN1CCN(CCCN2c3ccccc3Sc3ccc(C(F)(F)F)cc32)CC1)C12CC3CC(CC(C3)C1)C2`?
survivor count [8]: 6 of 6; survivor count [9]: 6 of 6

For `CCCN1CCc2cc3c(cc2C1)OCO3`, which survivor count (dose: 240.0 mg/kg/injection, schedule: Q01DX005 (ip), vehicle: saline) is on record?
Its survivor count is 0 of 6.

Which survivor count [3] does the source give for `C[O+]=c1cccc2sc(-c3ccccc3)ccc1-2` here?
Its survivor count is 0 of 6.

`CCCCC(CC)CCC(C)O` (stereo unspecified) was tested. Which survivor count (dose: 200.0 mg/kg/injection, schedule: Q04DX003 (ip), vehicle: saline with Tween-80) did it give?
The survivor count was 6 of 6.

Which T/C [5] does the source give for `O=S(=O)(c1ccccc1)N1CN2CCN(C2)C1` here?
The T/C was 139 % of control [5 of 6 alive].

Which survivor count (dose: 60.0 mg/kg/injection, schedule: Q01DX005 (ip), vehicle: saline with Tween-80) does the source give for `CCn1c(=S)[nH]c2sc3c(c2c1=O)CCCCC3` here?
The survivor count was 6 of 6.

How did the survivor count [7] turn out when `CC(=O)Oc1ccccc1C(=O)OC1CCN(C(C)C)C1` (stereo unspecified) was run?
The survivor count was 0 of 6.

Which survivor count (dose: 400.0 mg/kg/injection, schedule: Q01DX001 (ip), vehicle: Klucel (hydroxypropylcellulose) (HPC)) does the source give for `COc1cc2c(OC)c(c1)CCC1=CC(=O)C(=CC1=O)CC2` here?
The survivor count was 0 of 5.

`CC1(C)CC2CCCCN2CO1` (stereo unspecified) was tested. Which survivor count (dose: 200.0 mg/kg/injection, schedule: Q01DX005 (ip), vehicle: saline) did it give?
Its survivor count is 0 of 6.

Which survivor count [5] does the source give for `CC(NCCCSc1ccccc1)C(O)c1ccc(O)cc1` (stereo unspecified) here?
The survivor count was 3 of 6.

And the survivor count [10]?
Its survivor count is 0 of 6.

How did the survivor count (dose: 400.0 mg/kg/injection, schedule: Q04DX002 (ip), vehicle: saline with Tween-80) turn out when `O=Cc1ccccc1-c1ccccc1C=O` was run?
The survivor count was 5 of 6.

What does the source list for `CC(C)NC(=O)c1ccc(C/[N+]([O-])=C/c2ccccc2)cc1`?
T/C (dose: 400.0 mg/kg/injection, schedule: Q01DX009 (ip), vehicle: other): 129 % of control; survivor count (dose: 800.0 mg/kg/injection, schedule: Q01DX009 (ip), vehicle: distilled water + Tween-80): 1 of 4 and 3 of 5; survivor count (dose: 1600.0 mg/kg/injection, schedule: Q01DX009 (ip), vehicle: distilled water + Tween-80): 0 of 4

With `CCCCCCCCCCCCCCCCCC(=O)N[C@@H](Cc1ccc(N(CCCl)CCCl)cc1)C(=O)NCCCCCC` as the molecule, how does the T/C (dose: 8.47 mg/kg/injection, schedule: Q01DX009 (ip), vehicle: saline) read?
The T/C was 127 % of control.

What about the T/C (dose: 16.94 mg/kg/injection, schedule: Q01DX009 (ip), vehicle: saline) of the same molecule?
Its T/C is 145 % of control.

Which survivor count [8] does the source give for `O=C1NCCCC1(Cl)Cl` here?
Its survivor count is 6 of 6.

And the survivor count (dose: 100.0 mg/kg/injection, schedule: Q01DX009 (ip), vehicle: Klucel (hydroxypropylcellulose) (HPC))?
Its survivor count is 6 of 6.

What about the survivor count [9] of the same molecule?
The survivor count was 6 of 6.

What does the source list for `CC[N](CC)[Ge]([CH2]C)[CH2]C.CC[N](CC)[Ge]([CH2]C)[CH2]C`?
T/C (dose: 25.0 mg/kg/injection, schedule: Q01DX009 (ip), vehicle: saline): 125 % of control; T/C [11]: 138 % of control; survivor count [11]: 6 of 6; survivor count (dose: 100.0 mg/kg/injection, schedule: Q01DX009 (ip), vehicle: saline): 5 of 6; survivor count [2]: 0 of 6; survivor count [6]: 0 of 6; survivor count [7]: 0 of 6

With `CN[C@H]1CCc2cc(OC)c(OC)c(OC)c2-c2ccc(OC)c(=O)cc21` as the molecule, how does the T/C (dose: 1.0 mg/kg/injection, schedule: Q01DX009 (ip), vehicle: water) read?
The T/C was 130 % of control.

And the T/C (dose: 1.25 mg/kg/injection, schedule: Q01DX009 (ip), vehicle: water)?
Its T/C is 126 % of control.

What about the T/C (dose: 2.0 mg/kg/injection, schedule: Q01DX009 (ip), vehicle: water) of the same molecule?
Its T/C is 128 % of control.

And the T/C (dose: 2.5 mg/kg/injection, schedule: Q01DX009 (ip), vehicle: water)?
Its T/C is 131 % of control.

What about the T/C (dose: 4.0 mg/kg/injection, schedule: Q01DX009 (ip), vehicle: saline) of the same molecule?
The T/C was 137 % of control.

And the T/C (dose: 4.0 mg/kg/injection, schedule: Q01DX009 (ip), vehicle: water)?
The T/C was 130 % of control.

And the survivor count (dose: 8.0 mg/kg/injection, schedule: Q01DX009 (ip), vehicle: saline with Tween-80)?
Its survivor count is 6 of 6.

What about the T/C (dose: 8.0 mg/kg/injection, schedule: Q01DX009 (ip), vehicle: saline) of the same molecule?
Its T/C is 149 % of control.

What about the survivor count (dose: 16.0 mg/kg/injection, schedule: Q01DX009 (ip), vehicle: saline with Tween-80) of the same molecule?
Its survivor count is 5 of 6.

And the survivor count (dose: 32.0 mg/kg/injection, schedule: Q01DX009 (ip), vehicle: saline with Tween-80)?
Its survivor count is 1 of 6.

And the survivor count (dose: 64.0 mg/kg/injection, schedule: Q04DX003 (ip), vehicle: saline with Tween-80)?
The survivor count was 5 of 6.

What about the survivor count (dose: 128.0 mg/kg/injection, schedule: Q04DX003 (ip), vehicle: saline with Tween-80) of the same molecule?
The survivor count was 2 of 6.

With `C=CC(=NC(C)C)N(C)c1ccccc1` as the molecule, how does the survivor count [4] read?
The survivor count was 0 of 6.

And the survivor count [5]?
Its survivor count is 0 of 6.

What about the survivor count [10] of the same molecule?
Its survivor count is 0 of 6.

`N#Cc1c(-c2ccccc2)c(-c2ccccc2)nn(CCC(=O)O)c1=O` was tested. Which survivor count (dose: 200.0 mg/kg/injection, schedule: Q04DX002 (ip), vehicle: distilled water + Tween-80) did it give?
The survivor count was 2 of 6.

For `CN1CCc2cccc3c2[C@H]1Cc1ccc(O)c(O)c1-3`, which survivor count [3] is on record?
The survivor count was 4 of 5.

`Cc1ccc(C(c2ccccc2)c2ccc(C)cc2O)c(O)c1` was tested. Which survivor count [10] did it give?
Its survivor count is 5 of 6.

How did the survivor count (dose: 100.0 mg/kg/injection, schedule: Q04DX002 (ip), vehicle: Klucel (hydroxypropylcellulose) (HPC)) turn out when `C=C(C)C1CC(=O)C2(C)C(C1)OC(=O)C2C(=O)OCC` (stereo unspecified) was run?
Its survivor count is 3 of 5.

How did the T/C (dose: 50.0 mg/kg/injection, schedule: Q01DX009 (ip), vehicle: other) turn out when `O=c1oc2c(O)c(O)cc3c(=O)oc4c(O)c(O)cc1c4c23` was run?
The T/C was 140 % of control.

What about the T/C (dose: 100.0 mg/kg/injection, schedule: Q01DX009 (ip), vehicle: other) of the same molecule?
The T/C was 141 % of control.
